The structures appear in SMILES notation. Out of some 1,400 compounds screened, about 30 (2%) were called active. About 15% were inconclusive and are not listed. Calls follow the shape of the dose curve; as a rule, active = well fitted inhibition curve with a large enough effect; inconclusive = small, poorly fitted or top-dose-only effect; inactive = flat fitted curve, though single readings scatter. The list shows a part of the results.
% is scaled to controls: 0 for no effect and ±100 for the full control effect.

The nature of this test: Firefly Luciferase Counterscreen for Inhibitors of ATXN expression. The following applies: luminescence; at 57.5 µM (top of the series). The text has this:
University of Utah School of Medicine, Salt Lake City, Utah
Spinocerebellar ataxia type 2 (SCA2) is a multisystem neurodegenerative disease caused by a dominantly acting mutation leading to expansion of a polyQ domain in the ataxin-2 protein (ATXN2). SCA2 patients develop progressive ataxia and later lose function in other neuronal systems. Prominent parkinsonian signs develop in some patients. Like many neurodegenerative disorders, no symptomatic or disease-modifying treatments are known.
The primary objective of the proposed research is to identify compounds inhibiting ATXN2 expression and to test them for efficacy in SCA2 mouse models. We have developed a cell-based assay paired with an in vivo mouse model using identical luciferase expression constructs. This approach takes advantage of an ATXN2-luciferase transgene, with the luciferase gene flanked by the upstream and downstream portions of the ATXN2 gene. Here we describe a 5-7 dose quantitative high thoroughput screen (qHTS) for compounds lowering ATXN2 expression. We screened the NIH Molecular Libraries Small Molecule Repository (MLSMR) and NCGC's mechanistically annotated (MIPE) and drug repurposing (NPC) collections of compounds for lowering expression of an ATXN2-luciferase reporter in HEK-293 cells. The assay is a multiplexed cell viability assay to ensure target reduction in the absence of cytotoxicity. Secondary qHTS assays included a CMV-luciferase reporter expressed in HEK-293 cells as well as a biochemical assay using recombinant luciferase to detect inhibitors of the reporter enzyme. Compounds that inhibit ATXN2 expression but is not cytotoxic were selected for confirmatory and secondary screens.
PROTOCOL TABLE (as described by Inglese J, Shamu CE and Guy RK. 2007)
SEQUENCE No. (e.g., 1, 2, 3, etc.); […] (e.g., Cells, Incubation, Reagent, etc.); VALUE; DESCRIPTION.
2; Compounds; 23 nL; Kalypsis pintool (Wako USA) equipped with a 1536-well pin head.
3; Enzyme; 1 uL; recombinant firefly luciferase (prepared in 50 mM Tris HCl pH7.5, 10 mM MgCl2, 0.05% BSA, 0.01% Tween20) at final concentration of 10 nM. Wells containing buffer only were used as control (set as 100% inhibition when normalizing data).
4; Incubation; 10 min; room temperature.
5; Detection; Luminescence; Viewlux plate reader (PerkinElmer).
NOTES (numbers refer to Sequence numbers above)
1. Luciferase substrate is added to 1536 well, Greiner white assay plate. Evaporation was prevented by covering assay plates with metal lids containing holes to allow gas diffusion.
2. Compounds were added in a dose response manner with the final concentrations of 57, 11.4, 2.28, 0.46, 0.091, 0.018, 0.0037 uM. Vehicle-only plates, with DMSO being pin-transferred to columns 5-48, were inserted uniformly at the beginning and the end of each library to monitor and record any shifts in assay performance.
3. Recombinant firefly luciferase (10 nM final concentration) is added to the assay plate.
5. End-point luminescence is then measured on the Viewlux (PerkinElmer) imager equipped with a clear emission filter using a 2 sec exposure.
Inglese J, Shamu CE and Guy RK, Reporting data from high throughput screening of small molecule libraries, Nature Chemical Biology, 2007, 3(8): 438-441. doi.org/10.1038/nchembio0807-438.
In general terms: Counterscreens check selectivity or assay interference.
For `Cc1cccc(C)c1-n1nnnc1C(c1cc2ccccc2o1)N1CCC(n2c(=O)[nH]c3ccccc32)CC1` (stereo not drawn), the activity change, negative = inhibition is inactive: 1.58%.

Take `Cc1cccc(-n2c(/C=C/c3ccc([N+](=O)[O-])o3)nc3ccccc3c2=O)c1`: the activity change, negative = inhibition was inactive: 1.02%.

Regarding `c1ccc(CNc2c3c(nc4ccccc24)CCC3)cc1`, the activity change, negative = inhibition was inactive: -9.86%.

For `CCCCn1c(=O)c(C(=O)Nc2ccccc2S(N)(=O)=O)c(O)c2ccccc21`, the activity change, negative = inhibition is inactive: -17.2%.

In the case of `Cc1c2ccncc2c(C)c2c1[nH]c1ccccc12`, the activity change, negative = inhibition is inactive: -0.544%.

For the compound `COc1cc2c(ccc3c4cc(OC)c(OC)cc4c[n+](C)c23)cc1O`, the activity change, negative = inhibition was inactive: -18.7%.

Consider `CCC(C)(O)C(=O)OC1C(=O)OC2CC3C(C)=CC(=O)C(O)C3(C)C3C4(O)OCC23C1C(C)C4O` (stereo not drawn), for which the activity change, negative = inhibition was inactive: 2.23%.

As for `CSCCC(c1nnnn1-c1c(C)cccc1C)N1CCC2(CC1)C(=O)NCN2c1ccccc1` (stereo not drawn), the activity change, negative = inhibition is inactive: 1.05%.

For the compound `CC1OC(OC2C(O)CC(OC3C(O)CC(OC4CCC5(C)C(CCC6C5CCC5(C)C(C7=CC(=O)OC7)C(O)CC65O)C4)OC3C)OC2C)CC(O)C1O` (stereo not drawn), the activity change, negative = inhibition was inactive: 0.81%.

Turning to `CC1CC(C)CC(C)C(O)C(C#N)=CC=CCC(C2CCCC2C(=O)O)OC(=O)CC(O)C(C)C1` (stereo not drawn), the activity change, negative = inhibition was inactive: -8.03%.

Regarding `CCCCCCC(=O)N/N=C/c1c(O)n(CCCC)c(=S)[nH]c1=O`, the activity change, negative = inhibition is inactive: -5.16%.

Turning to `CCn1c(O)c(/C=N/NC(=O)c2ccccc2)c(=O)n(CC)c1=S`, the activity change, negative = inhibition was inactive: -6.72%.

As to `COc1ccc(N=Cc2c(O)n(-c3ccc(C)cc3)c(=O)[nH]c2=O)cc1`, the activity change, negative = inhibition is inactive: -2.76%.

With `Cc1ccc(-c2nc(N(C)C3CCN(C)CC3)c3ccccc3n2)cc1`, the activity change, negative = inhibition is inactive: -14.4%.

In the case of `CNC(=O)Nc1ccc(C(=O)N/N=C\C23CC[C@@H](O)CC2(O)CC[C@@H]2[C@@H]3CCC3(C)C(C4=CC(=O)OC4)CCC23O)cc1` (stereo partly drawn), the activity change, negative = inhibition is inactive: -19.8%.

Take `CC12CCC(O)CC1CCC1C2CCC2(C)C(C3=CC(=O)OC3)C(O)CC12O` (stereo not drawn): the activity change, negative = inhibition is inactive: 3.7%.

As to `O=C(Nc1ccc(OC(=O)N2CCCCC2)cc1)N1CCOCC1`, the activity change, negative = inhibition is inactive: -2.42%.

Take `CC(C)CCn1c(N)c(C(=O)NCc2cccs2)c2nc3ccccc3nc21`: the activity change, negative = inhibition is inactive: -5.32%.

In the case of `COC(=O)c1nc(-c2ccc3c(n2)C(=O)C(N)=C(OC)C3=O)c(N)c(-c2ccc(OC)c(OC)c2O)c1C`, the activity change, negative = inhibition is inactive: -15.6%.

On to `CCCCCOc1ccc(C)cc1CN(CCCl)CCCl`, for which the activity change, negative = inhibition is inactive: -1.84%.

Consider `NC(Cc1ccc(Cl)cc1)c1csc(Nc2ccccn2)n1` (stereo not drawn), for which the activity change, negative = inhibition was inactive: -0.184%.

Regarding `O=[N+]([O-])c1oc2ccc3ccccc3c2c1CCO`, the activity change, negative = inhibition is inactive: -5.73%.

Take `COC1C(O)C(C)OC(OC2CCC3(C)C(CCC4C3C(O)CC3(C)C(C5=CC(=O)OC5)CCC43O)C2)C1O` (stereo not drawn): the activity change, negative = inhibition is inactive: 3.29%.

Take `c1ccc2sc(N3CCNCC3)nc2c1`: the activity change, negative = inhibition was inactive: -4.71%.

On to `NC(Cc1ccc(F)cc1)c1csc(Nc2ccccn2)n1` (stereo not drawn), for which the activity change, negative = inhibition was inactive: -8.32%.

For `C=Cc1cc(OC)c2c(c1)c(=O)oc1c2cc(OC)c2c(O)ccc(C3OC(C)C(O)C(C)(O)C3O)c21` (stereo not drawn), the activity change, negative = inhibition is inactive: -4.99%.

As to `C#CCCC[C@@H]1OC(=O)CNC(=O)C([C@@H](C)CC)NC(=O)[C@@H]2CCCN2C(=O)C([C@@H](C)CC)OC(=O)[C@H](Cc2ccccc2)N(C)C(=O)[C@H](C(C)C)NC(=O)C1(C)C` (stereo partly drawn), the activity change, negative = inhibition was inactive: 1.32%.

For `CCCCC(=O)N/N=C/c1c(O)n(Cc2ccc(F)cc2)c(=O)[nH]c1=O`, the activity change, negative = inhibition is inactive: -5.24%.

For `N[C@@H](Cc1ccc(N(CCCl)CCCl)cc1)C(=O)O`, the activity change, negative = inhibition was inactive: -0.23%.

As to `Nc1c(C(=O)NCCc2ccccc2)c2nc3ccccc3nc2n1CCN1CCOCC1`, the activity change, negative = inhibition was inactive: -9.07%.

Consider `COc1ccc(O)c2c(=O)c3c(OC)cc4c(c3oc12)C1C=COC1O4` (stereo not drawn), for which the activity change, negative = inhibition was inactive: 0.457%.

Consider `CC(C)CCNC(=O)c1c(N)n(Cc2ccc3c(c2)OCO3)c2nc3ccccc3nc12`, for which the activity change, negative = inhibition is inactive: -0.956%.

On to `CCOc1cc(CNCCc2c[nH]c3ccccc23)cc(Cl)c1OC`, for which the activity change, negative = inhibition is inactive: 0.646%.

Values taken from PubChem BioAssay AID1745846 (National Center for Advancing Translational Sciences (NCATS), 2022).
